No constants are given. Whether binding was seen depends on the method and setting. In cells and extracts the contact can be indirect. Some results given as binding are weak or reduced against the parent protein; the word gives no strength. For part of these data: Tags and fused reporters may be left off the sequences shown.
Columns and labels:
[1] = molecular target: serotonin transporter protein (rat, constitutively expressed in Chinese hamster ovary cells) (rat) (UniProt P31652); test: co-immunoprecipitation from homogenate of CHO cells expressing rat SERT and HA-tagged MAGE-D1-NHD, IP with anti-HA, Western blot with anti-SERT
[2] = molecular target: serotonin transporter protein (rat, constitutively expressed in Chinese hamster ovary cells) (rat) (UniProt P31652); test: co-immunoprecipitation with anti-HA, Western blot with anti-SERT (FIG. 7(b))
[3] = molecular target: serotonin transporter protein (rat, constitutively expressed in Chinese hamster ovary cells) (rat) (UniProt P31652); test: co-immunoprecipitation from homogenate of CHO cells expressing rat SERT and HA-tagged MAGE-D1, IP with anti-HA, Western blot with anti-SERT (FIG. 6b)
[4] = molecular target: serotonin transporter protein (rat, constitutively expressed in Chinese hamster ovary cells) (rat) (UniProt P31652); test: co-immunoprecipitation from homogenate of CHO cells expressing rat SERT and HA-tagged MAGE-D1, IP with anti-SERT, Western blot with anti-HA (FIG. 6a)
[5] = molecular target: serotonin transporter protein (rat, constitutively expressed in Chinese hamster ovary cells) (rat) (UniProt P31652); test: reciprocal co-immunoprecipitation from CHO cell homogenate, Western blot (FIGS. 6(a) and 6(b))
[6] = molecular target: serotonin transporter protein (rat, constitutively expressed in Chinese hamster ovary cells) (rat) (UniProt P31652); test: conclusion of the co-immunoprecipitation experiments of Example 2 (CHO cell homogenate)
[7] = molecular target: serotonin transporter protein (endogenous, mouse brain homogenate) (mouse) (UniProt Q60857); test: conclusion of the co-immunoprecipitation experiments of Example 2 (mouse brain homogenate)
[8] = molecular target: serotonin transporter protein (endogenous, mouse brain homogenate) (mouse) (UniProt Q60857); test: co-immunoprecipitation from mouse brain homogenate, Western blot (FIG. 5)
[9] = molecular target: serotonin transporter protein (endogenous, mouse brain homogenate) (mouse) (UniProt Q60857); test: co-immunoprecipitation from mouse brain homogenate with anti-SERT antibody and dynabeads protein A, Western blot with anti-MAGE-D1

Amino acid sequences for entries named in this document (tags omitted).
UniProt P31652: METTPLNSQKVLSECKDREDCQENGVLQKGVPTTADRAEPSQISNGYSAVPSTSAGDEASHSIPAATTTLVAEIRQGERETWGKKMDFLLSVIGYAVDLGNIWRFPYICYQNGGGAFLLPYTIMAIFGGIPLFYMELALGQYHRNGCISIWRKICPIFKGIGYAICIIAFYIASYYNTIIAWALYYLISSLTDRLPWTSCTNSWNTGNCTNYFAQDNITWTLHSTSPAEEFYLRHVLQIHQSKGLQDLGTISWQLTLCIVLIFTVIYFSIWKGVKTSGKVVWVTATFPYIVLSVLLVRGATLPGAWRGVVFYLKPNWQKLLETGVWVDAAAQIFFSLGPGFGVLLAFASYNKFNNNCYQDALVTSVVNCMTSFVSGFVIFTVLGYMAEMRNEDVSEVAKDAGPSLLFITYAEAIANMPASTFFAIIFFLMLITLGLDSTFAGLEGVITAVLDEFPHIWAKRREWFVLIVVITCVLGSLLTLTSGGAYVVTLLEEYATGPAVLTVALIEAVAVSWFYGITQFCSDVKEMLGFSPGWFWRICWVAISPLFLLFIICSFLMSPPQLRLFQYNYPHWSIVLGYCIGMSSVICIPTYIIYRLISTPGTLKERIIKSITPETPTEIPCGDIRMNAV
UniProt Q60857: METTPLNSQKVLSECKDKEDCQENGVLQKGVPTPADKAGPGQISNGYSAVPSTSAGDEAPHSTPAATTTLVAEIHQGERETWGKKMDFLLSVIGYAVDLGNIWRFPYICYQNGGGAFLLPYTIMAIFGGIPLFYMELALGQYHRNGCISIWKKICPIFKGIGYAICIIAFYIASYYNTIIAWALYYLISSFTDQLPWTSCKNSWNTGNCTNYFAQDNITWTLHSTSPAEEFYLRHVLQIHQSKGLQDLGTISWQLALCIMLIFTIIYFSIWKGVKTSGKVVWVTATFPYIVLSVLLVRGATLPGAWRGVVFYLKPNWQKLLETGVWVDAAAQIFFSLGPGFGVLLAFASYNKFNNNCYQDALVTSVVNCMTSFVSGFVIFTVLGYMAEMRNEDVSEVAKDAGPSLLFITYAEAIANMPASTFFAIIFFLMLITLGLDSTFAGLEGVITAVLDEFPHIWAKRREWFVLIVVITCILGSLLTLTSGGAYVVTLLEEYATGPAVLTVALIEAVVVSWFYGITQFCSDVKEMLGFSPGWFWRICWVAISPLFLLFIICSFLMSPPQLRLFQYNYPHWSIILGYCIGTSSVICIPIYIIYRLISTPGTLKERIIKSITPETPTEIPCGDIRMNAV

Measured: binding

B1: HA-tagged MAGE-D1-NHD protein (protein, mouse)
chain: LQERANKLVKYLMLKDYTKVPIKRSEMLRDIIREYTDVYPEIIERACFVLEKKFGIQLKEIDKEEHLYILISTPESLAGILGTTKDTPKLGLLLVILGIIFMNGNRATEAVLWEALRKMGLRPGVRHPLLGDLRKLLTYEFVKQKYLDYRRVPNSNPPEYEFLWGLRSYHETSKMKVLRFIAEVQKRDPRDWTAQFMEAYPYDVPDYA
binds: [1] | [2]

B2: HA-tagged MAGE-D1 protein (full length, mouse) (protein)
chain: MAQKPDGGAGLRGFQAEASVEDSALLVQTLMEAIQISEAPPTSQATAAASGPNASPQSSQPPTANEKADTEVSAAAARPKTGFKAQNATTKGPNDYSQARNAKEMPKNQSKAAFKSQNGTPKGPHAASDFSQAAPTGKSAKKSEMAFKGQNSTKAGPGTTYNFPQSPSANEMTNNQPKTAKAWNDTTKVPGADAQTQNVNQAKMADVGTSAGISEADGAAAQTSADGSQTQNVESRTIIRGKRTRKVNNLNVEENNSGDQRRASLASGNWRSAPVPVTTQQNPPGAPPNVVWQTPLAWQNPSGWQNQTARQTPPAARQSPPARQTPSAWQNPVAWQNPVIWPNPVIWQNPVIWPNPIVWPGPIVWPNPMAWQSTPGWQSPPSWQAPPSWQSPQDWQGPPDWQVPPDWSMPPDWSFPSDWPFPPDWIPADWPIPPDWQNLRPSPNLRSSSNSRASQNQGPPQPRDVALLQERANKLVKYLMLKDYTKVPIKRSEMLRDIIREYTDVYPEIIERACFVLEKKFGIQLKEIDKEEHLYILISTPESLAGILGTTKDTPKLGLLLVILGIIFMNGNRATEAVLWEALRKMGLRPGVRHPLLGDLRKLLTYEFVKQKYLDYRRVPNSNPPEYEFLWGLRSYHETSKMKVLRFIAEVQKRDPRDWTAQFMEAADEALDALDAAAAEAEARAEARNRMGIGDEAVSGPWSWDDIEFELLTWDEEGDFGDPWSRIPFTFWARYHQNARSRFPQAFTGPIIGPSGTATANFAANFGAIGFFWVEYPYDVPDYA
binds: [3] | [4] | [5] | [6]

B3: MAGE-D1 protein (endogenous, mouse brain homogenate) (protein, UniProt Q9QYH6 1-775, looked up)
chain: MAQKPDGGAGLRGFQAEASVEDSALLVQTLMEAIQISEAPPTSQATAAASGPNASPQSSQPPTANEKADTEVSAAAARPKTGFKAQNATTKGPNDYSQARNAKEMPKNQSKAAFKSQNGTPKGPHAASDFSQAAPTGKSAKKSEMAFKGQNSTKAGPGTTYNFPQSPSANEMTNNQPKTAKAWNDTTKVPGADAQTQNVNQAKMADVGTSAGISEADGAAAQTSADGSQTQNVESRTIIRGKRTRKVNNLNVEENNSGDQRRASLASGNWRSAPVPVTTQQNPPGAPPNVVWQTPLAWQNPSGWQNQTARQTPPAARQSPPARQTPSAWQNPVAWQNPVIWPNPVIWQNPVIWPNPIVWPGPIVWPNPMAWQSTPGWQSPPSWQAPPSWQSPQDWQGPPDWQVPPDWSMPPDWSFPSDWPFPPDWIPADWPIPPDWQNLRPSPNLRSSSNSRASQNQGPPQPRDVALLQERANKLVKYLMLKDYTKVPIKRSEMLRDIIREYTDVYPEIIERACFVLEKKFGIQLKEIDKEEHLYILISTPESLAGILGTTKDTPKLGLLLVILGIIFMNGNRATEAVLWEALRKMGLRPGVRHPLLGDLRKLLTYEFVKQKYLDYRRVPNSNPPEYEFLWGLRSYHETSKMKVLRFIAEVQKRDPRDWTAQFMEAADEALDALDAAAAEAEARAEARNRMGIGDEAVSGPWSWDDIEFELLTWDEEGDFGDPWSRIPFTFWARYHQNARSRFPQAFTGPIIGPSGTATANFAANFGAIGFFWVE
binds: [7] | [8] | [9]
